According to PubChem BioAssay AID2685 (National Center for Advancing Translational Sciences (NCATS), 2010):
About 2,100 (0.66%) of roughly 320,000 compounds were called active. The inconclusive results got no clear call from the source; some entries with a clear call stand among them for comparison. Calls follow the shape of the dose curve; as a rule, active = well fitted inhibition curve with a large enough effect in the signal ratio, with a control signal flat (not every such curve was filed as active); inconclusive = small, poorly fitted or top-dose-only effect, or effect the other way, or a change in a side signal; inactive = flat fitted curve, though single readings scatter; the % refers to the signal ratio. A potency beside an inconclusive call is a rough fit, not a confirmed value.
% is scaled to controls: 0 for no effect and ±100 for the full control effect; potency is read from the fitted curve at half-maximal effect.

Test: qHTS Assay for Lipid Storage Modulators in Drosophila S3 Cells
Conditions: BODIPY lipid droplet fluorescence, 18-24 h, cells fed with added oleic acid; lipid storage change, negative = inhibition: at 46.1 µM (top of the series) unless noted
In short: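 Laser-scanning cytometry quantifies lipid droplet accumulation (500–530 nm total intensity; droplet/cell object ratio) in oleic acid-fed (400 uM added) Drosophila S3 cells treated with a concentration series. 20 uM Triacsin C defined 100% inhibition.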
In the case of O=C(C1CCN(S(=O)(=O)c2ccccc2)CC1)N1CCOCC1, the lipid storage change, negative = inhibition is reported as inconclusive: -38%. In the case of C=CCNC(=O)c1c2c(nc3ccccc13)-c1ccccc1CC2, the lipid storage change, negative = inhibition is reported as inconclusive: -59.1%. In the case of CCc1nc2ccccc2n1Cc1ccc(F)cc1, the Potency is reported as inconclusive: 7.31 µM [falling, single point]. For CCCCCCC(=O)N(O)C1CC(=O)N(c2ccc(Cl)cc2)C1=O (configuration not stated), the Potency was inconclusive: 20.6 µM [cytotoxic, single point]. With CCc1c(C)nc(N)n2c(SCC(=O)NC3CCCCC3)nnc12 the Potency was active: 1.3 µM. In the case of COc1cc(-c2cc(C(=O)Nc3c(Cl)cc(Cl)cc3Cl)c3ccccc3n2)cc(OC)c1OC, the Potency is reported as inconclusive: 25.9 µM [activator, single point]. In the case of COc1ccc(NC(=O)CSc2nnc3ccc(-c4cccnc4)nn23)cc1OC, the Potency is reported as inconclusive: 2.31 µM [falling, single point]. In the case of Cc1cccc(NC(=O)CSCC(=O)Nc2cc(Cl)ccc2N2CCOCC2)c1, the lipid storage change, negative = inhibition is reported as inconclusive: 38.7%. In the case of Cc1ccc(CN2CCN(/N=C/c3ccccc3)CC2)cc1, the lipid storage change, negative = inhibition is reported as inconclusive: -13.2%. With O=C(O)C1CCN1C1CCCCC1 (configuration not stated) the lipid storage change, negative = inhibition was inconclusive: -20%. With Cc1nnc(C)n1N the Potency was inconclusive: 0.82 µM [falling, full curve, poor fit]. With N#CCC(=O)Nc1ccc(C(=O)OCC(=O)NNC(=O)c2ccc(Cl)cc2)cc1 the lipid storage change, negative = inhibition was inconclusive: -1.73%. With O=C(O)c1[nH]c2ccccc2c1C(c1cc(Br)ccc1O)c1c(C(=O)O)[nH]c2ccccc12 the lipid storage change, negative = inhibition was inconclusive: 133%. For COC(=O)c1ccc(NC(=O)CS(=O)(=O)Cc2ccccc2)cc1, the lipid storage change, negative = inhibition was inconclusive: 51.8%. With NCCNC(=O)Cc1cccc(NC(=O)Cc2ccc(Nc3ncnc4c3ncn4[C@@H]3O[C@H](CO)[C@@H](O)[C@H]3O)cc2)c1 the lipid storage change, negative = inhibition was inconclusive: -11.3%. With CCOc1ccccc1NC(=O)CN(c1ccc(OC)cc1)S(=O)(=O)c1c(C)noc1C the lipid storage change, negative = inhibition was inconclusive: 26.6%. With O=C(Nc1ccccn1)c1cc2ccccc2o1 the lipid storage change, negative = inhibition was “inactive”. With Cc1cccc(OCc2nnc(SCC(=O)Nc3ccc(C)c(Cl)c3)o2)c1 the lipid storage change, negative = inhibition was inconclusive: 13.9%. With CCCn1c(NC(=O)c2ccccc2Br)nc2ccccc21 the lipid storage change, negative = inhibition was inconclusive: -16.7%. In the case of Cc1nn(C)c(C)c1Sc1ccccc1N, the Potency is reported as inconclusive: 0.146 µM [falling, full curve, poor fit]. With O=C(c1cc(=O)c2cc(Cl)ccc2o1)N1CCN(Cc2ccccc2)CC1 the lipid storage change, negative = inhibition was “inactive”. With Cc1ccc(C(=O)O)cc1N1C(=O)c2cccc3cc(Br)cc(c23)C1=O the lipid storage change, negative = inhibition was inconclusive: -16%. With CCCc1ccc(Oc2cc(NN3CCCCC3)c([N+](=O)[O-])cc2[N+](=O)[O-])cc1 the lipid storage change, negative = inhibition was inconclusive: 32.2%. In the case of COc1ccc(/C=C/C(=O)OC2CCCCC2CN(C)C)cc1 (configuration not stated), the lipid storage change, negative = inhibition is reported as inconclusive: 4.87%. In the case of COC(=O)c1ccc(/C=C2\Oc3ccccc3NC2=O)cc1, the lipid storage change, negative = inhibition is reported as inconclusive: 15.5%. With CCOC(=O)/C(=N\NC(=O)c1ccccc1)c1ccccc1 the lipid storage change, negative = inhibition was “inactive”. In the case of CS(=O)(=O)Nc1cccc(C(=O)OCCCOc2ccc(F)cc2)c1, the lipid storage change, negative = inhibition is reported as inconclusive: 102%. With Cc1ccc(C(=O)Nc2ccc(C(=O)O)cc2)cc1S(=O)(=O)Nc1cccc([N+](=O)[O-])c1 the lipid storage change, negative = inhibition was inconclusive: -4.81%. With O=C(Cn1nc(Cc2cccnc2)c2ccccc2c1=O)NCc1ccc(F)cc1 the Potency was inconclusive: 0.0046 µM [activator, full curve, poor fit]. In the case of CC1(C)CC[C@]2(C(=O)O)CC[C@]3(C)C(=CCC4[C@@]5(C)CC[C@H](O)C(C)(C)C5CC[C@]43C)C2C1 (some centres not stated), the lipid storage change, negative = inhibition is reported as inconclusive: -4.91%. In the case of O=C1c2ccccc2-c2nccnc21, the lipid storage change, negative = inhibition is reported as inconclusive: 0.74%. With Clc1ccc(CSc2nnc([C@@H]3CCCN3)o2)cc1 the Potency was inconclusive: 4.61 µM [rising, single point]. For COc1ccc(-c2[nH]c(-c3ccc(C)cc3)nc2SCC(=O)NCc2ccco2)cc1OC, the lipid storage change, negative = inhibition was inconclusive: -12.3%. In the case of Cc1ccc(C)c(NC(=S)N2CCC(NC(=O)c3cccc(F)c3)CC2)c1, the Potency is reported as inconclusive: 4.61 µM [activator, full curve]. With O=C(CCC(=O)c1ccccc1)Nc1cccnc1 the lipid storage change, negative = inhibition was inconclusive: -5.32%. For CC(C)Oc1ccc(C2C(C(=O)c3ccco3)=C(O)C(=O)N2Cc2cccnc2)cc1 (configuration not stated), the Potency was inconclusive: 32.6 µM [falling, single point]. With O=C(CSC1=NCCS1)N1CCOCC1 the lipid storage change, negative = inhibition was inconclusive: -14.9%. For CC(=NCCc1c(C)[nH]c2ccc(C)cc12)C1=C(O)CC(c2ccccc2)CC1=O (configuration not stated), the lipid storage change, negative = inhibition was inconclusive: 11.3%. In the case of COc1cc(-c2nc3cnccn3c2Nc2c(C)cccc2C)ccc1O, the Potency is reported as inconclusive: 16.4 µM [activator, partial curve]. In the case of O=C(c1cccc(F)c1)N1CCN(Cc2ccc3c(c2)OCO3)CC1, the lipid storage change, negative = inhibition is reported as inconclusive: 36.6%. In the case of CCCNC(=O)C(NS(=O)(=O)c1ccc2c(c1)c(=O)n(C)c(=O)n2C)c1ccccc1 (configuration not stated), the lipid storage change, negative = inhibition is reported as inconclusive: 3.36% [at 9.22 µM]. With CCN1CCN(C(=O)c2ccc3c(=O)n(CCC4=CCCCC4)c(=O)[nH]c3c2)CC1 the lipid storage change, negative = inhibition was inconclusive: -13.8%. With COc1ccc(-n2ncc3c(N(C)C4CCCCC4)ncnc32)cc1 the Potency was inconclusive: 0.58 µM [activator, single point]. In the case of CCN1CCc2nc(N)sc2C1, the lipid storage change, negative = inhibition is reported as inconclusive: -23.3%. In the case of CC(C)[C@@H](C(=O)N1CCN(C(=O)OC(C)(C)C)CC1)n1cc(CCO)nn1, the lipid storage change, negative = inhibition is reported as inconclusive: -31.6%. For Cc1ccc2oc(-c3cc(NC(=O)c4ncn[nH]4)ccc3O)nc2c1, the lipid storage change, negative = inhibition was inconclusive: -9.19%. With Oc1ccc(Nc2ncnc3c2oc2ccccc23)cc1 the Potency was inconclusive: 3.26 µM [falling, partial curve]. In the case of Cc1ccc(NC2(c3nnnn3-c3c(C)cccc3C)CCCCC2)cc1, the Potency is reported as inconclusive: 6.51 µM [falling, single point]. With Cc1cc(C)c2c(n1)SCC(=O)N2CC(=O)Nc1ccc(F)cc1 the lipid storage change, negative = inhibition was inconclusive: 18.4%. In the case of COc1ccc2c(C)cc(SCc3c(C)noc3C)nc2c1, the lipid storage change, negative = inhibition is reported as inconclusive: 4.89%. For Cc1ccc(S(=O)(=O)NCCC(=O)OCC(=O)Nc2ccccc2Cl)cc1, the lipid storage change, negative = inhibition was inconclusive: 20.2% [at 9.22 µM]. With CS(=O)(=O)c1ccc2nc(NC(=O)c3cc([N+](=O)[O-])cc([N+](=O)[O-])c3)sc2c1 the Potency was inconclusive: 29.1 µM [activator, single point]. With C=C(C(=O)c1ccccc1)C(CC(=O)c1ccccc1)c1ccccc1 (configuration not stated) the Potency was inconclusive: 16.4 µM [falling, single point]. For COc1ccc(-c2c(NC(=O)c3ccco3)n(C)c3ccccc3c2=O)cc1, the lipid storage change, negative = inhibition was inconclusive: -1.34%. With Cc1cc(C(=O)Cn2ncc(Cl)c(Cl)c2=O)c(C)n1CC(F)(F)F the Potency was inconclusive: 23.1 µM [falling, single point]. For CC(NC(=O)c1ccc(Cl)s1)C1CCCO1 (configuration not stated), the lipid storage change, negative = inhibition was inconclusive: -146%. In the case of Cc1ccccc1SCC(=O)NCCCn1ccnc1, the lipid storage change, negative = inhibition is reported as inconclusive: -19.6%. For O=C1c2ccccc2-c2nc3ccccc3cc21, the lipid storage change, negative = inhibition was inconclusive: -57.8%. With O=C(CCSc1ccc(Cl)cc1)N1CCN(c2ncccn2)CC1 the Potency was inconclusive: 20.6 µM [activator, single point]. In the case of CS(=O)(=O)c1ccccc1C(=O)Nc1ccc2sccc2c1, the lipid storage change, negative = inhibition is reported as inconclusive: 22.9%. For O=C(OCC(=O)c1cccs1)C1=COCCO1, the lipid storage change, negative = inhibition was inconclusive: -10%. For O=C(/C=C/c1cccs1)N1CCC2(CC1)Oc1ccc(Cl)cc1C(=O)C21CC(c2cccnc2)=NO1 (configuration not stated), the lipid storage change, negative = inhibition was inconclusive: 16.8%. In the case of CN(CC(=O)Nc1ccc(Cl)cc1)C(=O)CCc1c[nH]c2ccccc12, the lipid storage change, negative = inhibition is reported as inconclusive: 35.9%. With COc1cc(/C=C2\C(=N)N3N=C(S(C)(=O)=O)SC3=NC2=O)ccc1OCCOc1ccc(C)cc1 the Potency was inconclusive: 3.26 µM [activator, single point]. For CCCN1C(=O)/C(=C/c2ccco2)SC1=Nc1ccc(OC)cc1, the lipid storage change, negative = inhibition was inconclusive: 13.3%. For Fc1cccc(Nc2ncnc3[nH]ncc23)c1, the lipid storage change, negative = inhibition was “inactive”. In the case of O=C(Oc1ccc(-c2cnc3ccccc3n2)cc1)c1cc([N+](=O)[O-])ccc1Cl, the lipid storage change, negative = inhibition is reported as inconclusive: 24.5%. In the case of COc1ccc(S(=O)(=O)N2CCCCC2)cc1NC(=O)CNc1ccccc1N1CCCC1=O, the lipid storage change, negative = inhibition is reported as inconclusive: 9.46%. In the case of CCC(=O)Nc1ccc(NC(=O)/C=C/c2ccc(Cl)cc2)cc1, the lipid storage change, negative = inhibition is reported as inconclusive: 2.76%. For O=C(CCNC(=O)c1ccco1)Nc1ccc(OC(F)F)cc1, the lipid storage change, negative = inhibition was inconclusive: -14.2%. For Cc1ccc(S(=O)(=O)N(CC2CO2)c2cccc([N+](=O)[O-])c2)cc1 (configuration not stated), the Potency was inconclusive: 2.91 µM [falling, partial curve]. For Cc1ccc(C(=O)NNC(=O)c2nn(-c3ccc(F)cc3)ccc2=O)cc1, the lipid storage change, negative = inhibition was inconclusive: 2.01%. With COc1ccc(OCC(=O)Nc2cc(NC(=O)COc3ccc(OC)cc3)cc(C(=O)O)c2)cc1 the Potency was inconclusive: 5.17 µM [activator, partial curve]. In the case of Cc1ccc2[nH]c(=O)c(C(c3nnnn3C3CCCC3)N(Cc3cccnc3)Cc3ccco3)cc2c1 (configuration not stated), the Potency is reported as inconclusive: 29.1 µM [falling, single point]. With Cc1csc2c(SCC(=O)NNS(=O)(=O)c3cccc(C(F)(F)F)c3)ncnc12 the lipid storage change, negative = inhibition was inconclusive: 13.4%. For COc1ccc(S(=O)(=O)N2CCC3(CC2)CC(=O)c2ccccc2O3)cc1C, the lipid storage change, negative = inhibition was inconclusive: -28%. For COCCNC(=O)c1ccc2c(c1)nc(C)n2-c1cccc(F)c1, the lipid storage change, negative = inhibition was inconclusive: 39.1%.
